Test results taken from paper PMC7480113.
Results are given in words; binding and its absence hold for the method and conditions named. In cells and extracts the contact can be indirect. Some results given as binding are weak or reduced against the parent protein; the word gives no strength. Tags and fused reporters may be left off the sequences shown.

Target: T1, GFP-Cdc42ep5^WT (murine Cdc42ep5, N-terminal GFP fusion) (murine) (UniProt Q9Z0X0)
T1 sequence: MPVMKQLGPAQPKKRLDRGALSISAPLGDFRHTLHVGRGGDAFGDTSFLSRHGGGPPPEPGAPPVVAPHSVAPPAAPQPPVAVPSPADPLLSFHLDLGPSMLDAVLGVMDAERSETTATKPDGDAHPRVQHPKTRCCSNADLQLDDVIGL
Assay: co-IP; anti-GFP immunoprecipitation from lysates of 690.cl2 cells expressing GFP-tagged constructs; lysis buffer 50 mM Tris-HCl pH 7.5, 150 mM NaCl, 1% Triton X-100, 10% glycerol, 2 mM EDTA; Protein G beads, 4°C; blot for Sept9 and GFP

binding: binds
B1: Sept9 (murine, endogenous) (protein, UniProt Q80UG5 1-583)
chain: MKKSYSGVTRTSSGRLRRLADPTGPALKRSFEVEEIEPPNSTPPRRVQTPLLRATVASSSQKFQDLGVKNSEPAARLVDSLSQRSPKPSLRRVELAGAKAPEPMSRRTEISIDISSKQVESTASAAGPSRFGLKRAEVLGHKTPEPVPRRTEITIVKPQESVLRRVETPASKIPEGSAVPATDAAPKRVEIQVPKPAEAPNCPLPSQTLENSEAPMSQLQSRLEPRPSVAEVPYRNQEDSEVTPSCVGDMADNPRDAMLKQAPASRNEKAPMEFGYVGIDSILEQMRRKAMKQGFEFNIMVVGQSGLGKSTLINTLFKSKISRKSVQPTSEERIPKTIEIKSITHDIEEKGVRMKLTVIDTPGFGDHINNENCWQPIMKFINDQYEKYLQEEVNINRKKRIPDTRVHCCLYFIPATGHSLRPLDIEFMKRLSKVVNIVPVIAKADTLTLEERVYFKQRITADLLSNGIDVYPQKEFDEDAEDRLVNEKFREMIPFAVVGSDHEYQVNGKRILGRKTKWGTIEVENTTHCEFAYLRDLLIRTHMQNIKDITSNIHFEAYRVKRLNEGNSAMANGIEKEPEAQEM
